Record: PubChem BioAssay AID1159578 (Peter MacCallum Cancer Centre, 2015)
Test: 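Genome-wide hunt for genes controlling movement of lymphatic endothelial cells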 (primary screen). Cell system: human lymphatic endothelial cells. Reagents: siRNA pool against human genes, 40 nM. Duration: 48 h after transfection. Detection: 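Cells stained with dye and imaged after a scratch; covered wound area and nuclei counted, duplicates averaged, migration set against mock wells and turned into a robust z-score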. Reading the numbers: migration robust z-score: higher = faster migration into the scratch; nuclei per well: higher = more cells in the well. Call rule: 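Migration changed when robust z exceeds 2 or falls below -2 and mean nuclei number is at least 3300; otherwise not called changed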. Meaning of the calls: active = migration changed; inactive = no migration change, or too few cells.
The deposit covers about 18,000 reagents; shown is a random part of them. In the full data, about 1,030 (5.7%) got an active call. 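Inactive calls also include pools with fewer than 3300 nuclei, whose migration was not assessed.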 The raw values are shown without normalisation. Not all columns of the deposit are shown. Reagent sequences are not shown.

Depletion of PHB1 [SID255351549] resulted in: migration robust z-score 0.03; migration class with cell-count check migration z between -2 and 2; enough cells; nuclei per well, duplicate mean 5961; inactive. TLR6 [SID255355005] showed migration robust z-score 0.57; migration class with cell-count check migration z between -2 and 2; enough cells; nuclei per well, duplicate mean 5748; inactive. Against ST8SIA4 [SID255353332] the deposit lists migration robust z-score -0.1; migration class with cell-count check migration z between -2 and 2; enough cells; nuclei per well, duplicate mean 6716; inactive. ADPRS [SID255358284] scored migration robust z-score 0.26; migration class with cell-count check migration z between -2 and 2; enough cells; nuclei per well, duplicate mean 5262; inactive. Depletion of OPRL1 [SID255351356] gave: migration robust z-score 1.48; migration class with cell-count check migration z between -2 and 2; enough cells; nuclei per well, duplicate mean 6654; inactive. Knock-down of TUBG2 [SID255356961] resulted in: migration robust z-score 0.07; migration class with cell-count check migration z between -2 and 2; enough cells; nuclei per well, duplicate mean 5399; inactive.

Depletion of OR6Y1 [SID255365679] gave: migration robust z-score 1.91; migration class with cell-count check migration z between -2 and 2; enough cells; nuclei per well, duplicate mean 5416; inactive.

Laid out differently: entries from further up
target,PubChem SID,migration robust z-score,migration class with cell-count check,"nuclei per well, duplicate mean",outcome
TLR6,SID255355005,0.57,migration z between -2 and 2; enough cells,5748,inactive
ST8SIA4,SID255353332,-0.1,migration z between -2 and 2; enough cells,6716,inactive

The list goes on.
CCR1 [SID255348974] gave migration robust z-score 0.36; migration class with cell-count check migration z between -2 and 2; enough cells; nuclei per well, duplicate mean 6346; inactive. Depletion of PHACTR3 [SID255362354] gave: migration robust z-score 0.43; migration class with cell-count check migration z between -2 and 2; enough cells; nuclei per well, duplicate mean 5689; inactive. For MRPL10 [SID255362649] the deposit lists migration robust z-score 1.22; migration class with cell-count check migration z between -2 and 2; enough cells; nuclei per well, duplicate mean 5918; inactive. After knock-down of ALOX15B [SID255348280], the record shows migration robust z-score 0.6; migration class with cell-count check migration z between -2 and 2; enough cells; nuclei per well, duplicate mean 5200; inactive. Knock-down of ENTR1 [SID255355367] came out at: migration robust z-score 0.62; migration class with cell-count check migration z between -2 and 2; enough cells; nuclei per well, duplicate mean 6670; inactive. After knock-down of CNBD2 [SID255363161], the screen gave migration robust z-score 0; migration class with cell-count check migration z between -2 and 2; enough cells; nuclei per well, duplicate mean 6243; inactive.

LIMK2 [SID255350764] showed migration robust z-score -0.05; migration class with cell-count check migration z between -2 and 2; enough cells; nuclei per well, duplicate mean 6460; inactive.
